Measured values from PubChem BioAssay AID2685 (National Center for Advancing Translational Sciences (NCATS), 2010).
About 2,100 (0.66%) of roughly 320,000 compounds were called active. Inconclusive results, whose numbers are uncertain, are shown with a selection of clear calls. Calls come from the whole dose curve; as a rule, active = well fitted inhibition curve with a large enough effect in the signal ratio, with a control signal flat (not every such curve was filed as active); inconclusive = small, poorly fitted or top-dose-only effect, or effect the other way, or a change in a side signal; inactive = flat fitted curve, though single readings scatter; the % refers to the signal ratio. Potencies of inconclusive entries are doubtful fits and often do not repeat.
% is set by controls: 0 for no effect and ±100 for the full control effect; potency is the fitted concentration of half-maximal effect.

Test: qHTS Assay for Lipid Storage Modulators in Drosophila S3 Cells
Conditions: BODIPY lipid droplet fluorescence, 18-24 h, cells fed with added oleic acid; lipid storage change, negative = inhibition: at 46.1 µM (top of the series) unless noted
How it was run: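 Drosophila S3 cells got compounds at several concentrations plus oleic acid (400 uM solution). Laser-scanning cytometry with 488 nm excitation read lipid droplets at 500-530 nm and cells at 575-640 nm. Percent activity was relative to 20 uM Triacsin C.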
For CCCOc1ccc2oc(=O)c3c(c2c1)CCCN3C(=O)CN1CCCC(C(=O)OCC)C1 (configuration not stated), the Potency was inconclusive: 32.6 µM [falling, single point].
For C#CCOCCOCCOCCNc1nc(N2CCN(C(=O)CCCCCCCCCCNC(=O)[C@H](CCCCN)n3cc(CCO)nn3)CC2)nc(N2CCN(C(=O)CCCCCCCCCCNC(=O)[C@H](CCCCN)n3cc(CCO)nn3)CC2)n1, the Potency was inconclusive: 0.103 µM [cytotoxic, full curve, poor fit].
For O=C(N/N=C/c1cccc2cccnc12)c1ccccc1O, the lipid storage change, negative = inhibition was inconclusive: -25.6%.
For CC1Cc2ccccc2N1C(=O)CSc1ncccn1 (configuration not stated), the lipid storage change, negative = inhibition was “inconclusive”.
With COC(=O)CN1C(=O)C(C)(C)Oc2ccc(C(=O)NC3CCCC3)cc21 the Potency was inconclusive: 29.1 µM [activator, single point].
In the case of COC(=O)Oc1ccc(/C=N/NC(=O)CSCc2ccccc2Br)cc1OC, the Potency is reported as inconclusive: 2.91 µM [activator, partial curve].
For O=C(O)C1C2CCC(C2)C1C(=O)NCCc1ccc(F)cc1 (configuration not stated), the Potency was inconclusive: 25.9 µM [activator, single point].
In the case of CCCCC(=O)Nc1ccc(NC(=S)NC(=O)CC)cc1OC, the lipid storage change, negative = inhibition is reported as inconclusive: 19.8%.
With COc1ccc(CC2(C)OC(c3ccc(Cl)cc3)=NN2C(C)=O)cc1 (configuration not stated) the lipid storage change, negative = inhibition was inconclusive: 24.7%.
With O=C(COC(=O)c1cccc(S(=O)(=O)N2CCCCC2)c1)NC1CCCCC1 the Potency was inconclusive: 23.1 µM [falling, partial curve, poor fit].
With Cc1ccc(C(=O)CCC(=O)Nc2ccc(Cl)c(S(=O)(=O)Nc3cccc(Cl)c3)c2)cc1 the lipid storage change, negative = inhibition was inconclusive: 44.5%.
For CC[C@@H]1CC=C[C@H]2[C@H]1C(=O)N(Cc1ccccc1)[C@H]2c1ccc2ccccc2c1, the “lipid storage change, negative = inhibition” value was inactive: 3.66%.
With Cc1ccc(S(=O)(=O)N2CCC(C(=O)NC3CCCCC3C)CC2)cc1 (configuration not stated) the lipid storage change, negative = inhibition was inconclusive: -54.9%.
In the case of O=C(NCCn1cccn1)c1ccc(OC2CCN(C(=O)C3CC3)CC2)cc1, the lipid storage change, negative = inhibition is reported as inconclusive: -5.65%.
With COc1ccc(OC)c(NC(=O)c2ccc(N3C(=O)C4CC=C(C)CC4C3=O)cc2)c1 (configuration not stated) the Potency was inconclusive: 23.1 µM [activator, single point].
In the case of Cc1c(NC(=O)c2cc(-c3ccc(O)cc3)on2)c(=O)n(-c2ccccc2)n1C, the lipid storage change, negative = inhibition is reported as inconclusive: -9.72%.
In the case of COc1ccc(/C=C2\N=C(c3ccccc3)N(c3ccc(C(=O)O)cc3)C2=O)cc1OC, the “lipid storage change, negative = inhibition” value is reported as inactive: -5.74%.
For COc1ccc(C(=O)OCC(=O)NC(C)(C)C)cc1[N+](=O)[O-], the lipid storage change, negative = inhibition was inconclusive: 7.5%.
For C=CCn1c(SCc2nc3cc(C(=O)OC)ccc3c(=O)[nH]2)nc2sc(CC)cc2c1=O, the Potency was inconclusive: 6.51 µM [activator, single point].
In the case of CCCCn1c(N)c(N(Cc2ccccc2)C(=O)COc2ccccc2F)c(=O)[nH]c1=O, the lipid storage change, negative = inhibition is reported as “inconclusive”.
In the case of Cc1ccc(SC(C)C(=O)N2CCN(c3ccccc3)CC2)cc1 (configuration not stated), the lipid storage change, negative = inhibition is reported as inconclusive: 15.9%.
For N#CCOc1ccccc1/C=C/c1nc2ccccc2c(=O)[nH]1, the Potency was active: 0.82 µM.
In the case of NNC(=O)CN1C(c2cccc(Cl)c2)=Nc2ccc(Br)cc2C1c1ccccc1 (configuration not stated), the Potency is reported as inconclusive: 0.326 µM [activator, partial curve, poor fit].
With CN(C(=O)c1sc2nc(N3CCCC3)c3c(c2c1N)CC(C)(C)OC3)c1ccccc1 the lipid storage change, negative = inhibition was inconclusive: -12.2%.
With Cc1nn(CC(C)C)c(Cl)c1C(=O)N(C)CC(=O)Nc1c(Cl)cccc1Cl the Potency was inconclusive: 4.61 µM [falling, full curve, poor fit].
For COc1cc(CNCc2cccc(OC)c2OC)cc(OC)c1, the lipid storage change, negative = inhibition was inconclusive: -5.58%.
With COC(=O)c1nc(NC(=O)c2ccccc2Br)n[nH]1 the lipid storage change, negative = inhibition was inconclusive: 37.5%.
In the case of CCc1ccc(CNc2ccc(N3CCN(C(C)=O)CC3)cc2)cc1, the Potency is reported as inconclusive: 18.4 µM [activator, single point].
With CC(=O)N/N=C/C1=CCC2CC1C2(C)C (configuration not stated) the lipid storage change, negative = inhibition was inconclusive: -23.6%.
With COc1ccc(NC(=O)/C(C#N)=C/c2ccc(Sc3nncn3C)c([N+](=O)[O-])c2)cc1 the Potency was inconclusive: 35.5 µM [falling, single point].
In the case of COCCN1C(=O)N(c2ccc(Cl)cc2)C(=O)C1CC(=O)Nc1cc(OC)cc(OC)c1 (configuration not stated), the Potency is reported as inconclusive: 13 µM [activator, partial curve].
For Cc1nnc(SCC(=O)N(CC(C)C)C2CCS(=O)(=O)C2)n1N (configuration not stated), the Potency was inconclusive: 1.84 µM [activator, partial curve, poor fit].
For Cc1ccc(NS(=O)(=O)c2cc(C(=O)O)ccc2Cl)c(C)c1, the “lipid storage change, negative = inhibition” value was inactive: 6.34%.
For Cc1cc(OCC(=O)N(C)Cc2ccccc2)ccc1Cl, the lipid storage change, negative = inhibition was inconclusive: 15.4%.
For COc1ccc(CCNC(=O)CC(C)(C)CC2=NS(=O)(=O)c3ccccc3N2)cc1OC, the Potency was inconclusive: 29.1 µM [falling, single point].
With CC(C(=O)O)n1nc2ccccc2n1 (configuration not stated) the lipid storage change, negative = inhibition was inconclusive: -8.35%.
For COc1ccc2nc(NC(=O)Nc3ccccc3OC)sc2c1, the Potency was inconclusive: 0.13 µM [falling, partial curve, poor fit].
With Cc1cc(NS(=O)(=O)c2ccc(NC(=O)CSc3nc4ncc(Cl)cc4[nH]3)cc2)nc(C)n1 the lipid storage change, negative = inhibition was inconclusive: -0.203%.
In the case of C=CCn1c(NCc2ccccc2O)nc2ccccc21, the Potency is reported as inconclusive: 0.82 µM [falling, full curve].
In the case of C[C@H]1C=C(C(=O)N2CCOCC2)O[C@@H](OCc2ccc(CO)cc2)C1, the lipid storage change, negative = inhibition is reported as inconclusive: 14.4%.
In the case of CCN(c1ccccc1)S(=O)(=O)c1ccc(C(=O)Nc2ccccn2)cc1, the Potency is reported as inconclusive: 0.461 µM [falling, full curve].
With Cc1cccc(N(C)C(=O)C2CCCN2S(=O)(=O)c2cccc3nsnc23)c1 (configuration not stated) the lipid storage change, negative = inhibition was inconclusive: 38.7%.
In the case of Cc1cnn(-c2cc(N/N=C/c3ccc(F)cc3)ncn2)c1, the lipid storage change, negative = inhibition is reported as inconclusive: 26.4%.
In the case of COc1ccc(C2=NOC(Cn3nc(C(=O)NCc4cccs4)cc3-c3ccccc3)C2)cc1 (configuration not stated), the lipid storage change, negative = inhibition is reported as inconclusive: -1.17%.
With N#Cc1c(NC(=O)CSc2nc(-c3ccco3)cc(C(F)(F)F)n2)sc2c1CCCC2 the lipid storage change, negative = inhibition was inconclusive: -17.8%.
For C=CCNC(=O)c1ccc2c3n(nc2c1)-c1ccc(C)cc1CO3, the lipid storage change, negative = inhibition was inconclusive: 5.77%.
For CCN1CC=C2C(C#N)=C(N)C(C#N)(C#N)C(c3cc(Cl)ccc3Cl)C2C1 (configuration not stated), the lipid storage change, negative = inhibition was inconclusive: -67.3%.
For COc1ccc(CNC(=O)C2CCN(C(=O)c3cccc(Cl)c3)CC2)cc1, the lipid storage change, negative = inhibition was inconclusive: -5.88%.
For COC(=O)CSc1ncccc1-c1nc2ccccc2[nH]1, the Potency was inconclusive: 6.51 µM [falling, single point].
In the case of Cc1cccc(C)c1OCC(=O)Nc1cc(Cl)ccc1-n1cncn1, the Potency is reported as inconclusive: 0.164 µM [rising, full curve].
In the case of COC(=O)c1cc(-c2ccccc2)n[nH]1, the lipid storage change, negative = inhibition is reported as inconclusive: 31.4%.
For CC(Oc1cccc(Cl)c1)C(=O)Nc1ccncc1 (configuration not stated), the lipid storage change, negative = inhibition was inconclusive: -4.87%.
With CCSc1nnc(NC(=O)CSc2nnc(-c3c[nH]c4ccccc34)n2C)s1 the Potency was active: 2.06 µM.
For CCCC1Cc2c(sc(N)c2C#N)CO1 (configuration not stated), the lipid storage change, negative = inhibition was inconclusive: -13.4%.
In the case of O=C(/C=C1\NC2(CCCC2)Cc2ccccc21)C(=O)N/N=C/c1ccccc1O, the lipid storage change, negative = inhibition is reported as inconclusive: -41.3%.
In the case of O=C(CN(c1ccccc1)S(=O)(=O)c1ccccc1[N+](=O)[O-])Nc1ccccc1C(=O)N1CCOCC1, the Potency is reported as inconclusive: 6.51 µM [cytotoxic, partial curve, poor fit].
In the case of O=C(O)c1ccc(N/N=C/c2ccc(OC(=O)c3cccc(Cl)c3)cc2)cc1, the lipid storage change, negative = inhibition is reported as inconclusive: 18.3%.
With COc1cc(OC)cc(-c2nnc(SCC(=O)Nc3cccc(C(=O)O)c3)s2)c1 the lipid storage change, negative = inhibition was inconclusive: -53.4%.
With CCOc1ccc(S(=O)(=O)Nc2nc3cc(OC)ccc3s2)cc1 the Potency was inconclusive: 3.26 µM [falling, single point].
With CCCN1C(=O)c2ccccc2NC1c1ccc(Br)cc1 (configuration not stated) the Potency was inconclusive: 6.51 µM [rising, single point].
With COc1ccc(-c2cc(C(=O)Nc3ccc4c(c3)OCO4)no2)cc1OC the Potency was inconclusive: 29.1 µM [activator, single point].
With COc1ccccc1C(=O)N/C(=C\c1cn(C)c2ccccc12)C(=O)N1CCCC1 the lipid storage change, negative = inhibition was inconclusive: 268%.
In the case of CCc1nn(CC(=O)N2CCN(c3ccc(OC)cc3)CC2)c(=O)c2cc3occc3n12, the lipid storage change, negative = inhibition is reported as inconclusive: -128%.
With NC1=NS(=O)(=O)NC1c1ccc(Br)cc1 (configuration not stated) the lipid storage change, negative = inhibition was inconclusive: -20.1%.
In the case of COc1sc(SC)cc1/C=N/NC(=O)c1ccncc1, the Potency is reported as inconclusive: 29.1 µM [activator, single point].
In the case of Cc1cc(-c2nnc(CCC(=O)NC(C)c3ccc(F)cc3)o2)no1 (configuration not stated), the lipid storage change, negative = inhibition is reported as inconclusive: 20.9%.
In the case of COc1cccc(-n2c(SCc3c(C)noc3C)nnc2-c2cccc(S(=O)(=O)N(C)C)c2)c1, the Potency is reported as inconclusive: 8.2 µM [activator, partial curve].
In the case of CN(C(=O)COC(=O)CNC(=O)C1CCCCC1)c1ccccc1, the lipid storage change, negative = inhibition is reported as inconclusive: -0.862%.
In the case of CCCCn1c(=O)c(C(C)=O)c(O)c2ccccc21, the lipid storage change, negative = inhibition is reported as inconclusive: 0.176%.
For CCOC(=O)C1=C(COC(=O)CNC(=O)c2ccc(C(C)(C)C)cc2)NC(=O)NC1C (configuration not stated), the lipid storage change, negative = inhibition was “inconclusive”.
With Cn1c(OCc2cccnc2)nc2c1c(=O)n(Cc1ccc(Br)cc1)c(=O)n2C the Potency was inconclusive: 0.58 µM [falling, full curve, poor fit].
In the case of O=[N+]([O-])c1cc(/C=N/OCc2c(Cl)cccc2Cl)ccc1N1CCOCC1, the lipid storage change, negative = inhibition is reported as inconclusive: -143%.
